The list is a part of this screen's results and no random one: it is rich in T/C values a quarter to a half above the control, in often repeated tests (any T/C) and in doses without a T/C. Other doses and runs of a compound stand elsewhere. T/C gives the treated animals as a percentage of the vehicle group. Some doses have a count of surviving animals in place of a T/C: the source files T/C as zero there, which appears to mark a toxic dose or a test without result, not a measured value. Some survivor counts are full or nearly so, which does not show that the dose was tolerated: the source hardly ever lists a survival T/C far under the control, and the zero likely stands for such cases as well. Counts of survivors are from the toxicity check (mostly the fifth day) where no day follows; animals may have died later. Schedule codes are those of the source, taken here to give the interval after Q, in days (D) or hours (H), and the number of doses after X. Some schedule codes hold Z or #, which are not explained here. Some doses were run more than once; the results are listed from low to high. Where survival is the endpoint, this PubChem deposit counts one and a half times the control or more as active, and values a quarter to a half above the control carry no call in these data; other NCI protocols may use other cut-offs. Some T/C values carry the count of animals alive at the toxicity check (mostly the fifth day); where none is given, no animal had died by that day.
System: L1210 leukemia ip in BDF1 mice, survival T/C
Assay: NCI In Vivo Anticancer Drug Screen. Data for tumor model L1210 Leukemia (intraperitoneal) in B6D2F1 (BDF1) mice
Settings: T/C endpoint: mean survival time, higher T/C = longer survival
[1] = dose: 400.0 mg/kg/injection, schedule: Q01DX001 (ip), vehicle: saline
[2] = dose: 200.0 mg/kg/injection, schedule: Q01DX001 (ip), vehicle: saline

Compound: CC[N+](C)(C)CCCOC(=O)C1C2CC3CC(C2)CC1C3 (centres undefined)
- survivor count (dose: 100.0 mg/kg/injection, schedule: Q04DX002 (ip), vehicle: saline): 0 of 3 and 2 of 3
- survivor count (dose: 200.0 mg/kg/injection, schedule: Q04DX002 (ip), vehicle: saline): 0 of 3
- survivor count (dose: 400.0 mg/kg/injection, schedule: Q04DX002 (ip), vehicle: saline): 0 of 3

Compound: O=C(CCCCC(=O)Nc1cc(C(=O)Nc2ccc(C3=NCCN3)cc2)ccc1C(=O)Nc1ccc(C2=NCCN2)cc1)Nc1cc(C(=O)Nc2ccc(C3=NCCN3)cc2)ccc1C(=O)Nc1ccc(C2=NCCN2)cc1
- survivor count (dose: 60.0 mg/kg/injection, schedule: Q01DX Z (ip), vehicle: methylcellulose (MC)): 0 of 6

Compound: Cc1c2c(cc3c1OCN(C1CCCCC1)C3)CN(C1CCCCC1)CO2
- survivor count [1]: 3 of 6

Compound: CCC(C)(C)c1ccc(O)cc1
- survivor count (dose: 200.0 mg/kg/injection, schedule: Q01DX009 (ip), vehicle: saline with Tween-80): 6 of 6

Compound: CCCCN1CCN2C(=O)N(CC)CCC2C1 (centres undefined)
- survivor count [2]: 0 of 6
- survivor count [1]: 0 of 6

Compound: COc1cc(C(=O)NCC2(C)OC3(OC(=O)C2O)C(=O)N/C(=C(\C=O)C(C)=O)OC3C(O)C2CN2C(C)=O)c2cccc(C)c2c1 (centres undefined)
- T/C (dose: 0.03 mg/kg/injection, schedule: Q03DX005 (ip), vehicle: clinical formulation): 137 % of control
- survivor count (dose: 0.06 mg/kg/injection, schedule: Q#B X045 (ip), vehicle: clinical formulation): 3 of 6
- T/C (dose: 0.07 mg/kg/injection, schedule: Q03DX005 (ip), vehicle: clinical formulation): 135 % of control
- T/C (dose: 0.1 mg/kg/injection, schedule: Q07DX003 (ip), vehicle: clinical formulation): 144 % of control
- survivor count (dose: 0.13 mg/kg/injection, schedule: Q#B X045 (ip), vehicle: clinical formulation): 0 of 6
- T/C (dose: 0.2 mg/kg/injection, schedule: Q01DX001 (ip), vehicle: clinical formulation): 128 % of control
- T/C (dose: 0.2 mg/kg/injection, schedule: Q01DX015 (oral), vehicle: clinical formulation): 127 % of control
- survivor count (dose: 0.26 mg/kg/injection, schedule: Q#B X045 (ip), vehicle: clinical formulation): 0 of 6
- survivor count (dose: 0.3 mg/kg/injection, schedule: Q03DX005 (ip), vehicle: clinical formulation): 2 of 6
- T/C (dose: 0.4 mg/kg/injection, schedule: Q01DX015 (oral), vehicle: clinical formulation): 126 % of control [5 of 6 alive]
- survivor count (dose: 0.4 mg/kg/injection, schedule: Q07DX003 (ip), vehicle: clinical formulation): 6 of 6
- survivor count (dose: 0.8 mg/kg/injection, schedule: Q01DX001 (ip), vehicle: clinical formulation): 0 of 6
- survivor count (dose: 0.8 mg/kg/injection, schedule: Q07DX003 (ip), vehicle: clinical formulation): 1 of 6
- T/C (dose: 12.5 micrograms/kg/injection, schedule: Q01DX015 (ip), vehicle: clinical formulation): 140 % of control
- T/C (dose: 12.5 micrograms/kg/injection, schedule: Q01DX015 (sc), vehicle: clinical formulation): 128 % of control
- T/C (dose: 13.0 micrograms/kg/injection, schedule: Q01DX Z (ip), vehicle: saline): 131 % of control
- T/C (dose: 15.0 micrograms/kg/injection, schedule: Q03DX005 (ip), vehicle: clinical formulation): 130 % of control
- T/C (dose: 25.0 micrograms/kg/injection, schedule: Q01DX015 (ip), vehicle: clinical formulation): 147 % of control
- T/C (dose: 25.0 micrograms/kg/injection, schedule: Q01DX015 (sc), vehicle: clinical formulation): 142 % of control
- T/C (dose: 25.0 micrograms/kg/injection, schedule: Q01DX045 (ip), vehicle: clinical formulation): 132 % of control [4 of 6 alive]
- T/C (dose: 25.0 micrograms/kg/injection, schedule: Q01DX Z (ip), vehicle: saline): 146 % of control
- T/C (dose: 50.0 micrograms/kg/injection, schedule: Q01DX015 (ip), vehicle: clinical formulation): 129 % of control
- T/C (dose: 50.0 micrograms/kg/injection, schedule: Q01DX015 (sc), vehicle: clinical formulation): 146 % of control
- T/C (dose: 50.0 micrograms/kg/injection, schedule: Q01DX045 (ip), vehicle: clinical formulation): 128 % of control [5 of 6 alive]
- T/C (dose: 50.0 micrograms/kg/injection, schedule: Q07DX003 (ip), vehicle: clinical formulation): 128 % of control
- T/C (dose: 100.0 micrograms/kg/injection, schedule: Q01DX015 (sc), vehicle: clinical formulation): 145 % of control
- T/C (dose: 100.0 micrograms/kg/injection, schedule: Q01DX045 (ip), vehicle: clinical formulation): 140 % of control [5 of 6 alive]
- survivor count (dose: 100.0 micrograms/kg/injection, schedule: Q01DX Z (ip), vehicle: saline): 6 of 6

Compound: OC(CN1CCCCC1)c1nc2ccccc2c2ccccc12 (centres undefined)
- survivor count [2]: 1 of 3

Compound: C#CCONC(=O)c1ccc(OC)cc1
- survivor count (dose: 200.0 mg/kg/injection, schedule: Q01DX009 (ip), vehicle: carboxymethylcellulose (CMC)): 1 of 6
- survivor count (dose: 400.0 mg/kg/injection, schedule: Q01DX009 (ip), vehicle: carboxymethylcellulose (CMC)): 0 of 6

— PubChem BioAssay AID248 (DTP/NCI, 2004)
